The series concerns CD9, the surface marker protein of extracellular vesicle (EV). As to the kind of experiment: Study of action of chelating agent and surfactant on whole blood or on immune reaction (CD9, Example 5). Also noted: species or system human. As to the method:
To 0.01 g/mL of magnetic particles in 10 mM MES buffer (pH 5.0), 0.2 mg/mL of a mouse anti-CD9 monoclonal antibody (Fujirebio Inc.) that recognizes an extracellular vesicle (EV) surface marker CD9, was added. Then, the resulting solution was gently stirred at 25° C. for one hour for incubation. After the reaction, the magnetic particles were magnetically collected and washed with a washing solution (50 mM Tris buffer, 150 mM NaCl2, 2.0% BSA, pH 7.2) in order to obtain anti-CD9 antibody solid-phased particles. Each antibody solid-phased particle was suspended in a particle diluent (50 mM Tris buffer, 1 mM EDTA-2Na, 0.1% NaN3, 2.0% BSA, pH 7.2) in order to obtain each antibody solid-phased particle solution.
Desalted alkaline phosphatase (ALP) was mixed with N-(4-maleimidobutyryloxy)-succinimide (GMBS) (final concentration 0.3 mg/mL) and the resulting solution was allowed to stand at 30° C. for one hour for maleimidation of ALP. Next, in a coupling reactant solution (100 mM phosphate buffer, 1 mM EDTA-2Na, pH 6.3), Fab's of mouse anti-CD9 monoclonal antibody was mixed with maleimidized ALP at a molar ratio of 1: 1, and reacted at 25° C. for one hour. The reactant solution was subjected to purification using Superdex 200 column chromatography (General Electric Company) to obtain ALP-labeled anti-CD9 antibody. Each ALP-labeled antibody was suspended in a labeled antibody diluent (50 mM MES buffer, 150 mM NaCl2, 0.3 mM ZnCl2, 1 mM MgCl2, 0.1% NaN3, 2.0% BSA, pH 6.8) to obtain each labeled antibody solution.
20 μL of the sample for measurement and 50 μL of the anti-CD9 antibody solid-phased particle solution were dispensed into the reaction vessel and stirred. Then, the resulting solution was incubated at 37° C. for 8 minutes (primary reaction), and B/F separation and washing were carried out. 50 μL of the ALP-labeled antibody was dispensed into the reaction vessel, the resulting solution was stirred and then incubated at 37° C. for 8 minutes, and B/F separation and washing were carried out. Then, 200 μL of Lumipulse (registered trademark) substrate solution (Fujirebio Inc.) containing 3-(2′-spiroadamantane)-4-methoxy-4-(3″-phosphoryloxy)phenyl-1,2-dioxetane disodium salt (AMPPD) serving as a chemiluminescent substance was dispensed into the reaction chamber. The resulting solution was stirred and then incubated at 37° C. for 4 minutes for the measurement of luminescence intensity using luminometer. A count value was obtained as the measured value. The luminescence intensity was measured using a fully automated chemiluminescent enzyme immunoassay system (Lumipulse L2400 (Fujirebio Inc.)).
Antibodies recognizing the same epitope in CD9 were used as the antibody solid-phased on the magnetic particle and the ALP-labeled antibody. Due to the presence of a plurality of CD9 on a single extracellular vesicle, it is possible to measure for the extracellular vesicle presenting a plurality of CD9 to be indicated as the surface marker rather than free CD9 by means of the sandwich immunoassay in which the antibodies recognizing the same epitope as the solid-phased antibodies were used as the ALP-labeled antibodies.
We investigated whether the chelating agent and the surfactant act on whole blood or on immune reaction. […]
In addition, CD9 was measured also for a solution obtained by adding 100 mM EGTA to the CD9 antibody solid-phased particle solution. […]

Regarding `O=C(O)CN(CCOCCOCCN(CC(=O)O)CC(=O)O)CC(=O)O` [EGTA, glycol ether diamine tetraacetic acid], the “count value, EGTA added to the CD9 antibody solid-phased particle solution vs not added” value (100 mM EGTA in particle solution) is listed as “not significantly higher”. Further, the “count value vs supernatants prepared from whole blood without EGTA” value (EGTA final 200 mM in whole blood, with 0% or 1% tergitol 15-S-40) was “significantly higher count values”. Besides, the Count average (blood collection vessel: 200 mM EGTA, 0% Tergitol, particle solution: 100 mM EGTA + 0.5% Tergitol) worked out at 116133; the Count average (blood collection vessel: 200 mM EGTA, 0% Tergitol, particle solution: 0.5% Tergitol) stood at 102897; the Count average (blood collection vessel: nothing added, particle solution: 100 mM EGTA + 0.5% Tergitol) was 13768.
